Results reported in PubChem BioAssay AID2517 (National Center for Advancing Translational Sciences (NCATS), 2010).
Out of some 350,000 compounds screened, about 1,200 (0.34%) were called active. The inconclusive results got no clear call from the source; some entries with a clear call stand among them for comparison. The call rests on the fitted dose curve; in most records, active means well fitted inhibition curve with a large enough effect; inconclusive means small, poorly fitted or top-dose-only effect; inactive means no such curve, though single readings can be large or run the other way. Potencies of inconclusive entries are doubtful fits and often do not repeat.

Chains of the proteins cited; added tags and fusions are not shown.
UniProt P27695, whole entry, looked up: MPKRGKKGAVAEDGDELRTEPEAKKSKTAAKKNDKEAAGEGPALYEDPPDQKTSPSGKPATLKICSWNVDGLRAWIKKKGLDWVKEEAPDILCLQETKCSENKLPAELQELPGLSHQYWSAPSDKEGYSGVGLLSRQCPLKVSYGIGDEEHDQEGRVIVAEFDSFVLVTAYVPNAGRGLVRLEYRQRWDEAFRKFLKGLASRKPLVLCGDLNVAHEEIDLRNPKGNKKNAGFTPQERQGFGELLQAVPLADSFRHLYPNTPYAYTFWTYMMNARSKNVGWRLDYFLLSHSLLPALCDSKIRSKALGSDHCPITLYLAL

These molecules were tested against DNA repair nuclease/redox regulator APEX1 (Homo sapiens) (UniProt P27695) (assay: qHTS Assay for Inhibitors of the Human Apurinic/apyrimidinic Endonuclease 1 (APE1)). Conditions: recombinant APE1, TAMRA/BHQ-2 abasic DNA cleavage fluorescence; series mostly up to 65.8 µM.
Summary of the method: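 Quantitative HTS: incision of a TAMRA/BHQ-2 double-stranded substrate bearing a tetrahydrofuran abasic site by 0.75 nM APE1 raises fluorescence. Substrate 50 nM final, added after 15 min compound preincubation at room temperature; progress as third-minus-first kinetic read difference.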
Further: nearly all actives have a fitted effect of over 55% in size.
Potency means the concentration at half of the fitted maximal effect.

Compound | Potency
COc1ccc2[nH]cc(CCNc3ccnc(-c4ccc(N(C)C)cc4)n3)c2c1 | inconclusive: 44.7 µM [inhibitor, single point]
Cn1ncc2c(N3CCC(Cc4ccccc4)CC3)ncnc21 | inconclusive: 15.8 µM [inhibitor, partial curve, poor fit]
CC(=O)NC(c1ccccc1)c1cc(Cl)c2cccnc2c1O (stereo not drawn) | inactive
Cc1cc([N+](=O)[O-])nn1CC(=O)Nc1cccc2nonc12 | inconclusive: 0.501 µM [inhibitor, full curve, poor fit]
COCCCNC(=S)N1CCN(c2nc3ccccc3s2)CC1 | inconclusive: 39.8 µM [inhibitor, single point]
Cc1cc(C(=O)Cn2nnc(-c3ccc(Cl)cc3)n2)c(C)n1-c1ccccc1 | inactive
O=C(c1cc(-c2ccncc2)nc2ccccc12)N1CCN(c2ccc(N3CCOCC3)nn2)CC1 | inconclusive: 0.0158 µM [inhibitor, full curve, poor fit]
COc1ccc(-c2[nH]c(-c3cccc(OC)c3)nc2SCC(=O)NC2CCCC2)cc1 | inconclusive: 5.01 µM [inhibitor, single point]
O=C(O)C1Nc2ccc(Br)cc2C2C=CCC12 (stereo not drawn) | inconclusive: 13.4 µM [inhibitor, partial curve]
O=C(C#Cc1ccccc1)c1ccc([N+](=O)[O-])cc1 | inactive
CN(C)Cc1nnnn1-c1cccc(-n2nnnc2CN(C)C)c1 | inactive
O=C(c1ccc(Cl)c(S(=O)(=O)Nc2ccccc2C(=O)N2CCc3ccccc3C2)c1)N1CCc2ccccc2C1 | inconclusive: 35.5 µM [inhibitor, partial curve, poor fit]
N#CC1=C(N)OC2=C(C(=O)CC(c3ccco3)C2)C1c1ccc(OCc2c(F)cccc2Cl)cc1 (stereo not drawn) | inconclusive: 35.5 µM [inhibitor, single point]
N#CC(C#N)=C1C=C2C=C(N3CCCCC3)CCC2CC1 (stereo not drawn) | inactive
CN1C(=O)/C(=C/C=C2/CCCN2C)N(C)C1=S | inconclusive: 5.01 µM [inhibitor, single point]
COc1cc(C(=O)NCC(c2ccccc2)N(C)C)ccc1OCC(=O)N1CCOCC1 (stereo not drawn) | inconclusive: 2.82 µM [inhibitor, single point]
CN=C(C)c1c(O)c2ccccc2oc1=O | inconclusive: 0.447 µM [inhibitor, full curve]
COc1cccc(OC)c1C(=O)Nc1ccccc1C(=O)N1CCCC1 | inconclusive: 8.44 µM [inhibitor, single point]
Cc1ccc(CSc2n[nH]c(N)n2)cc1 | inactive
O=C(CCN1C(=O)/C(=C\c2ccccc2Cl)SC1=S)Nc1cccnc1 | inactive
Cc1ccc(C(=O)NNc2ncnc3c2cnn3C)cc1 | inconclusive: 44.7 µM [inhibitor, single point]
COc1ccc(C(=O)NCC(=O)OCC(=O)Nc2ccc(C)c(S(=O)(=O)N(C)C)c2)cc1OC | inconclusive: 44.7 µM [inhibitor, single point]
N#C/C(=C/c1ccc(O)c(O)c1)C(=O)OC/C=C/c1ccccc1 | inconclusive: 14.1 µM [inhibitor, full curve, poor fit]

Compound | Potency
COc1ccc(/C(N)=N/OC(=O)c2cccs2)cc1OC | inconclusive: 0.398 µM [inhibitor, full curve]
O=C(OCc1nnc(-c2ccccc2)o1)C12CC3CC(CC(Br)(C3)C1)C2 | inconclusive: 44.7 µM [inhibitor, single point]
COc1cc(OC)c2c(-c3cccc(-c4ccc(OC)c(F)c4)c3)cc(=O)oc2c1 | inconclusive: 3.55 µM [inhibitor, partial curve, poor fit]
CCc1ccc(S(=O)(=O)/N=C2\C=C(Nc3cccc(C(=O)O)c3)C(=O)c3ccccc32)cc1 | inactive
O=C1C=CC(=O)N1Cc1ccccc1 | inactive
NC(=O)c1ccc2nc(-c3ccc(Oc4ccc(Cl)cc4)cc3)[nH]c2c1 | inconclusive: 15.8 µM [inhibitor, single point]
CN(C)/C=C/C(=O)c1ccc(-c2ccc(Cl)cc2Cl)o1 | inconclusive: 44.7 µM [inhibitor, single point]
CC(C)(C)NC(=O)CN(C(=O)CNS(=O)(=O)c1ccc(Cl)cc1)c1ccc2c(c1)OCCO2 | inactive
COc1cc(C(CCN2CCCC2)c2c(OC)cc(OC)c3c(-c4ccccc4)cc(=O)oc23)cc(OC)c1OC (stereo not drawn) | inconclusive: 35.5 µM [inhibitor, partial curve, poor fit]
COc1cc(CC(=O)OCC(=O)NC2CC2)cc(OC)c1OC | inconclusive: 7.94 µM [inhibitor, single point]
O=C(Nc1ccc2nsnc2c1)N1CCCCC1 | inconclusive: 44.7 µM [inhibitor, single point]
CSCCC(NC(=O)COc1ccccc1)C(=O)Nc1ccc(C)cc1 (stereo not drawn) | inconclusive: 0.631 µM [inhibitor, full curve]
O=C(CSc1nnc(CNc2ccc(F)cc2)n1CC1CCCO1)Nc1ccccc1 (stereo not drawn) | inactive
CC(C)(C)c1nn(-c2ccccc2)c2[nH]c(=O)c(CNc3ccc4c(c3)OCCO4)cc12 | inconclusive: 25.1 µM [inhibitor, partial curve]
COc1ccc(S(=O)(=O)N2N=C(c3ccc(NS(C)(=O)=O)cc3)CC2c2ccco2)cc1 (stereo not drawn) | inconclusive: 31.6 µM [inhibitor, partial curve]
O=C(Nc1ccc(N2CCCCC2)cc1)c1ccc([N+](=O)[O-])o1 | inactive
O=C1CNC(=O)/C(=C/c2ccco2)N1 | inconclusive: 28.2 µM [inhibitor, single point]
C=CCn1c(SCC(=O)Nc2cc(Cl)ccc2C(=O)O)nc2sc(C)c(C)c2c1=O | inactive
O=S(=O)(c1ccc(NC(=S)NN=C2CCCCC2)cc1)N1CCOCC1 | active: 35.5 µM
CCOC(=O)c1c(NC(C)=O)sc2c(OCC(O)CN(CC)CC)c(Br)ccc12 (stereo not drawn) | inconclusive: 20 µM [inhibitor, partial curve, poor fit]
Cc1ccc([C@@H]2C3COCC=C3C(C#N)=C(N)C2(C#N)C#N)o1 (stereo partly drawn) | inconclusive: 35.5 µM [inhibitor, single point]
Cc1ccc(S(=O)(=O)NC(=O)c2ccc(Br)o2)cc1 | inconclusive: 6.31 µM [inhibitor, single point]
Clc1cc(Sc2ccc(Br)cc2)nnc1-c1ccccc1 | inconclusive: 20 µM [inhibitor, partial curve]

Compound | Potency
Cc1cc2ncn(C(=O)N3CCCCC3)c2cc1C | inconclusive: 3.55 µM [inhibitor, single point]
CCOC(=O)COc1ccc(C(=O)c2ccccc2)c(O)c1 | inactive
CCOC(=O)c1ccc(NC(=O)CCC(=O)NCc2ccco2)cc1 | inactive
COc1ccc(NC(=O)c2ccc(S(=O)(=O)N3CCOCC3)cc2)c(OC)c1 | inactive
CC(=O)NNc1nc(-c2ccccc2)cs1 | inconclusive: 50.1 µM [inhibitor, partial curve, poor fit]
O=C(COC(=O)c1ccc(S(=O)(=O)NCc2ccco2)cc1)NCC1CCCCC1 | inconclusive: 20 µM [inhibitor, single point]
Cc1cc(C(=O)COC(=O)CNC(=O)c2ccc(F)cc2)c(C)n1Cc1ccco1 | inconclusive: 35.5 µM [inhibitor, single point]
O=C(OCC(=O)c1ccc[nH]1)c1ccc(S(=O)(=O)N2CCCCC2)cc1 | inconclusive: 25.1 µM [inhibitor, partial curve]
COc1ccccc1Oc1nc2c(c(=O)n(Cc3ccccc3F)c(=O)n2C)n1C | inconclusive: 39.8 µM [inhibitor, single point]
CCOc1ccc(=O)n(-c2ccccc2)n1 | inconclusive: 44.7 µM [inhibitor, single point]
CCn1cc(S(=O)(=O)CC(=O)Nc2ccc3c(c2)OCO3)c2ccccc21 | inconclusive: 7.94 µM [inhibitor, single point]
Nc1cc(N)c(OCC(F)(F)F)cc1OCC(F)(F)F | inconclusive: 3.55 µM [inhibitor, full curve, poor fit]
COc1ccc(/C=N/Nc2nnc(C)n2N)cc1OC(C)=O | inactive
S=C(NCC1CCCO1)Nc1ccc(Nc2ccccc2)cc1 (stereo not drawn) | inconclusive: 14.1 µM [inhibitor, partial curve, poor fit]
COc1ccccc1-n1c(CCn2nc(C)c(Br)c2C)n[nH]c1=S | inconclusive: 1 µM [inhibitor, partial curve, poor fit]
Cc1c(C)c2c(c(C)c1O)CC[C@@](C)(CCC[C@@H](C)CCC[C@@H](C)CCCC(C)C)O2 | inconclusive: 3.16 µM [inhibitor, partial curve, poor fit]
COc1ccccc1-c1nc(C#N)c(N2CCN(c3cccc(Cl)c3)CC2)o1 | inactive
COC(=O)Cc1nc2ccccc2[nH]1 | inconclusive: 39.8 µM [inhibitor, single point]
N#Cc1c(NC(=O)CSc2ncnc3sccc23)oc(-c2ccco2)c1-c1ccco1 | inconclusive: 35.5 µM [inhibitor, partial curve]
COC(=O)c1ccc(OCC2NCCc3cc(OC)c(OC)cc32)cc1 (stereo not drawn) | inconclusive: 26.7 µM [inhibitor, single point]
O=c1[nH]c2ccccc2nc1/C=C/c1ccc(O)cc1 | inactive
CCOC(=O)c1nnsc1Nc1ccc(C)c(C)c1 | inconclusive: 22.4 µM [inhibitor, single point]

Exported as comma-separated lines: part of the list above
Compound,Potency
Cc1cc(C(=O)Cn2nnc(-c3ccc(Cl)cc3)n2)c(C)n1-c1ccccc1,inactive
O=C(COC(=O)c1ccc(S(=O)(=O)NCc2ccco2)cc1)NCC1CCCCC1,"inconclusive: 20 µM [inhibitor, single point]"
